Screening data

Data taken from PubChem BioAssay AID1224904, deposited by Broad Institute (2016).

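Selective DUX4 reporter inhibition in doxycycline-induced 293T-iDUX4 cells, scored as Gaussia percent activity minus Italica percent activity, after a 24-hour treatment. The test concentration is not given here. Percent difference between the Gaussia and Italica channels; more negative values mean more selective suppression of the DUX4 reporter, and higher values mean less activity.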

Values are in %. The controls that fix the scale are not given here. Common to all entries: measured here: selective DUX4 reporter inhibition. This is a side read-out of the assay, for part of the compounds, not drawn at random.

compound,Gaussia minus Italica difference (%)
Cc1ccc(S(=O)(=O)N(C)C[C@@H]2OCCCC[C@@H](C)Oc3ccc(NC(=O)C4CCCCC4)cc3C(=O)N([C@@H](C)CO)C[C@H]2C)cc1,14.21
COc1ccc2c3c([nH]c2c1)[C@@H](CO)N(C(=O)Nc1ccc(F)cc1)CC31CCN(C(=O)c2ccccc2F)CC1,-6.01
OC[C@@H]1[C@H](c2ccc(Br)cc2)[C@H]2CN(Cc3ccccn3)CCCCN12,-23.23
O=C(Nc1ccc(F)cc1)N1CCCCN2[C@@H](CO)[C@@H](c3ccc(-c4cccc(F)c4)cc3)[C@@H]2C1,25.06
COc1cccc(S(=O)(=O)N2CC[C@@H]3[C@@H](CO)Nc4ccc(-c5ccc(C#N)cc5)cc4[C@@H]32)c1,-4.638
C[C@@H]1CN([C@H](C)CO)C(=O)c2c(c3ccccc3n2C)-c2ccccc2CO[C@H]1CN(C)C(=O)c1ccc(F)cc1,-12.66
CO[C@H](CN(C)S(=O)(=O)c1ccc(F)cc1)[C@H](C)CN(Cc1ccccc1Cl)[C@H](C)CO,-11.1
Cc1ccccc1-c1ccc([C@H]2[C@@H](CO)N3CCCCN(C(=O)NC4CCCC4)C[C@H]23)cc1,-1.991
C/C=C/c1ccc([C@@H]2[C@H](CO)N(CC3CCCC3)C23CN(C(=O)CC2CC2)C3)cc1,-0.3771
Cc1cccc(S(=O)(=O)N2CC[C@@H]3[C@H](CO)Nc4ccc(-c5ccccc5F)cc4[C@@H]32)c1,-7.353
C[C@@H]1CN([C@@H](C)CO)C(=O)c2c(c3ccccc3n2C)-c2ccccc2CO[C@H]1CN(C)S(=O)(=O)c1ccc(Cl)cc1,-10.15
O=C(C1CCC1)N1C[C@@H]2N[C@H](C1)C2c1ccc(/C=C/c2ccccc2)cc1 (stereo not given in full),14.08
CC(C)NC(=O)N1[C@@H](CO)[C@@H](c2ccccc2)C12CN(Cc1ccc(Cl)cc1)C2,-5.564
CCCNC(=O)N1[C@H](CO)[C@@H](c2ccccc2C2=CCCCC2)[C@@H]1C#N,3.494
COc1ccc(CN2CC3(C2)[C@H](c2ccccc2)[C@@H](CO)N3CC2CCCC2)cc1,-15.79
N#Cc1ccc(-c2ccc3c(c2)[C@H]2[C@H](CCN2C(=O)c2ccccc2F)[C@H](CO)N3)cc1,-12.43
N#C[C@H]1[C@@H](c2ccccc2-c2ccc(F)cc2)[C@@H](CO)N1c1ncc(-c2ccccc2)s1,-6.043
OC[C@@H]1Nc2ccc(-c3ccc(F)cc3)cc2[C@@H]2[C@H]1CCN2Cc1ccc(F)cc1,-6.618
CO[C@@H]1CN(C)C(=O)c2cc(NC(=O)c3ccc(Oc4ccccc4)cc3)ccc2OC[C@H](C)NC[C@H]1C,26.84
CCC(=O)N1CC2(CN(Cc3ccc(Cl)cc3)C2)c2c([nH]c3cc(OC)ccc23)[C@@H]1CO,-18.27
CCS(=O)(=O)N1CCC2(CC1)CN(Cc1ccccc1OC)[C@@H](CO)c1c2c2ccc(OC)cc2n1C,-11.01
CCS(=O)(=O)N1CC2(CN(Cc3ccc4c(c3)OCO4)[C@H](CO)c3[nH]c4cc(OC)ccc4c32)C1,-5.547
OC[C@H]1[C@H](c2ccc(C#Cc3ccccc3)cc2)[C@@H]2CN(CC3CCOCC3)CCCCN12,-19.65
O=C(C[C@@H]1C[C@H]2c3cc(NS(=O)(=O)c4ccc(F)cc4)ccc3O[C@H]2[C@H](CO)O1)N1CCc2ccccc2C1,-2.373
CC(=O)N1CCCCN2[C@@H](CO)[C@@H](c3ccc(C#Cc4ccccc4F)cc3)[C@@H]2C1,-7.904
C/C=C/c1ccc([C@H]2[C@H](CO)N3CCCCN(S(=O)(=O)c4cccc(C)c4)C[C@@H]23)cc1,-22.9
COc1ccccc1CN1CC[C@H]2[C@H](CO)Nc3ccc(-c4cccc(F)c4)cc3[C@H]21,7.646
N#Cc1ccc(-c2ccc3c(c2)[C@H]2[C@H](CCN2C(=O)c2ccccc2F)[C@@H](CO)N3)cc1,-11.42
O=C(C[C@@H]1CC[C@@H](NC(=O)c2ccc3c(c2)OCO3)[C@H](CO)O1)NCc1ccc(Oc2ccccc2)cc1,-16.03
COc1cccc(CN2CCC3(CC2)CN(C(=O)C2CC2)[C@H](CO)c2[nH]c4cc(OC)ccc4c23)c1,20.53
Cc1ccc(S(=O)(=O)N2C[C@H](O)COC[C@H]3O[C@@H](CC(=O)NCC4CCCCC4)CC[C@@H]32)cc1,-4.491
O=C(C[C@@H]1CC[C@@H]2[C@H](COC[C@@H](O)CN2S(=O)(=O)c2cccc(Cl)c2)O1)Nc1ccc(-c2ccccc2)cc1,2.925
N#Cc1cccc(-c2ccc(C3[C@@H]4CN(C(=O)Nc5ccccc5)C[C@H]3N4)cc2)c1 (stereo not given in full),-22.15
CCC(=O)N1CC(=O)N2[C@H](C1)[C@H](c1ccc(C#Cc3cccc(F)c3)cc1)[C@@H]2CO,-6.357
N#Cc1ccc(-c2ccc([C@@H]3[C@@H](CO)N4CCCCN(C(=O)Nc5ccc(F)cc5)C[C@@H]34)cc2)cc1,-6.785
COc1ccc(S(=O)(=O)Nc2ccc3c(c2)OC[C@@H](C)N(Cc2cc(F)ccc2F)C[C@@H](C)[C@H](OC)CN(C)C3=O)cc1,-9.544
CCCNC(=O)N1CC2(CCN(Cc3cccc(OC)c3)CC2)c2c([nH]c3cc(OC)ccc23)[C@H]1CO,16.45
COc1ccc2c3c([nH]c2c1)[C@H](CO)N(C(=O)C1CCOCC1)CC31CCN(Cc2cccc(F)c2)CC1,22.1
O=C(c1cccnc1)N1CC[C@@H]2[C@H](CO)Nc3ccc(C#Cc4cccnc4)cc3[C@@H]21,-14.37
COc1ccc(C#Cc2ccc([C@H]3[C@@H](CO)N4CCCCN(C(=O)Cc5cccnc5)C[C@H]34)cc2)cc1,3.258
CCC(=O)N1[C@H](CO)[C@@H](c2ccc(/C=C/c3ccccc3)cc2)C12CN(S(C)(=O)=O)C2,3.78
COc1ccc(-c2ccc([C@H]3[C@@H](CO)N4CCCCN(C(=O)c5ccc(F)cc5)C[C@@H]34)cc2)cc1,-9.866
O=C(C[C@@H]1C[C@H]2c3cc(NC(=O)Nc4ccccc4F)ccc3O[C@H]2[C@@H](CO)O1)NC1CCCCC1,-24.86
COc1cccc(CN2CC3(C2)CN(C(=O)C2CC2)[C@@H](CO)c2c3c3ccc(OC)cc3n2C)c1,-13.51
O=C(c1cccc(F)c1)N1CCCCN2[C@@H](CO)[C@H](c3ccc(/C=C/c4ccccc4)cc3)[C@@H]2C1,-24.86
CCCN1C[C@@H](C)[C@H](OC)CN(C)C(=O)c2cc(NC(=O)Nc3cccc(F)c3)ccc2OC[C@@H]1C,-6.173
CCC(=O)N1CC[C@@H]2[C@H](CO)Nc3ccc(-c4cccc(C#N)c4)cc3[C@@H]21,1.903
COc1ccc2c3c(n(C)c2c1)[C@@H](CO)N(Cc1ccccc1OC)CC31CCN(CC2CC2)CC1,0.06951
Cc1ccc(S(=O)(=O)Nc2ccc3c(c2)C(=O)N([C@@H](C)CO)C[C@H](C)[C@@H](CN(C)Cc2ccc4c(c2)OCO4)OCCCC[C@H](C)O3)cc1,-4.164
COc1ccccc1-c1ccc2c(c1)[C@@H]1[C@@H](CCN1C(=O)C1CCC1)[C@H](CO)N2,13.42
O=C(C[C@H]1CC[C@@H]2[C@H](COC[C@H](O)CN2S(=O)(=O)c2ccc(F)cc2)O1)N[C@@H]1CCN(Cc2ccccc2)C1,-15.38
COc1ccc2c3c([nH]c2c1)[C@@H](CO)N(C(=O)Nc1ccc(F)cc1)CC31CN(C(=O)Cc2ccccc2)C1,-0.8739
CO[C@H](C(=O)N(C)C[C@@H]1OCc2ccccc2-c2c(n(C)c3ccccc23)C(=O)N([C@@H](C)CO)C[C@@H]1C)c1ccccc1,4.647
O=C(C[C@H]1C[C@@H]2c3cc(NS(=O)(=O)c4ccc(F)cc4)ccc3O[C@@H]2[C@@H](CO)O1)NCc1ccc(Cl)cc1,-5.837
C/C=C/c1ccc([C@H]2[C@@H](CO)N3CCCCN(S(=O)(=O)c4ccc(OC)cc4)C[C@H]23)cc1,-10.41
O=C(Cc1cccnc1)N1CC(=O)N2[C@H](CO)[C@@H](c3ccc(C#CC4CCCCC4)cc3)[C@@H]2C1,4.462
COc1cccc(-c2ccc3c(c2)[C@@H]2[C@@H](CCN2S(=O)(=O)c2ccccc2F)[C@@H](CO)N3)c1,6.246
COc1cccc(-c2ccc3c(c2)[C@@H]2[C@@H](CCN2C(=O)C2CCCCC2)[C@@H](CO)N3)c1,6.284

The first 7 entries again:

{"compound": "Cc1ccc(S(=O)(=O)N(C)C[C@@H]2OCCCC[C@@H](C)Oc3ccc(NC(=O)C4CCCCC4)cc3C(=O)N([C@@H](C)CO)C[C@H]2C)cc1", "Gaussia minus Italica difference (%)": "14.21"}
{"compound": "COc1ccc2c3c([nH]c2c1)[C@@H](CO)N(C(=O)Nc1ccc(F)cc1)CC31CCN(C(=O)c2ccccc2F)CC1", "Gaussia minus Italica difference (%)": "-6.01"}
{"compound": "OC[C@@H]1[C@H](c2ccc(Br)cc2)[C@H]2CN(Cc3ccccn3)CCCCN12", "Gaussia minus Italica difference (%)": "-23.23"}
{"compound": "O=C(Nc1ccc(F)cc1)N1CCCCN2[C@@H](CO)[C@@H](c3ccc(-c4cccc(F)c4)cc3)[C@@H]2C1", "Gaussia minus Italica difference (%)": "25.06"}
{"compound": "COc1cccc(S(=O)(=O)N2CC[C@@H]3[C@@H](CO)Nc4ccc(-c5ccc(C#N)cc5)cc4[C@@H]32)c1", "Gaussia minus Italica difference (%)": "-4.638"}
{"compound": "C[C@@H]1CN([C@H](C)CO)C(=O)c2c(c3ccccc3n2C)-c2ccccc2CO[C@H]1CN(C)C(=O)c1ccc(F)cc1", "Gaussia minus Italica difference (%)": "-12.66"}
{"compound": "CO[C@H](CN(C)S(=O)(=O)c1ccc(F)cc1)[C@H](C)CN(Cc1ccccc1Cl)[C@H](C)CO", "Gaussia minus Italica difference (%)": "-11.1"}